Experimental data reported in patent publication US10918700B2, “Lipid-based nanoparticles and use of same in optimized insulin dosing regimens” (SDG, Inc., priority 2019, dated 2021).

System: type 1 diabetes (T1D)
Assay: Example 3, 6-month open label study: hypoglycemic events by unblinded CGM
Type: in vivo, human
Source text: Subcutaneous (SC) insulin is non-physiologic, since pancreatic insulin goes first to the liver. The present study was designed to determine whether delivery of Hepatic Directed Vesicles (HDV) admixed with lispro/HUMALOG® (HDV-L) decreases hypoglycemia in well controlled patients on multiple daily injections (MDI) with type 1 diabetes (T1D) using unblinded Dexcom G6 continuous glucose monitoring (CGM).
This study was a 6-month (mo) open label study of prandial insulin (lispro, 3 mo, then HDV-L, 3 mo) with basal insulin degludec (TRESIBA®) and unblinded continuous glucose monitoring (CGM) in T1D with baseline A1C 6.5-8.5%. Insulin dosing, hypoglycemia, and daily glucose control were among the monitored parameters.
In this study the target fasting blood glucose was 80-100 mg/dL. At 3 mo subjects were randomized to −10% or −40% basal dose to encourage titration with HDV-L. Physicians titrated basal insulin weekly. A hypoglycemic event was defined as ≥15 min of CGM≤54 mg/dL.

## insulin lispro
24 hr, lispro at 3 mo, HDV-L at end of study, event ≥15 min of CGM≤54 mg/dL, baseline 1.11
  hypoglycemic events per week (EPW): 0.99 EPW
At 3 mo (lispro optimization)
  decrease in hypoglycemic events per week from baseline: 11%
Lispro at 3 mo, HDV-L at end of study, baseline 1.04
  hypoglycemic events per week, Daytime (DT): 0.93 EPW
Lispro at 3 mo, HDV-L at end of study, baseline 1.39
  hypoglycemic events per week, Nighttime (NT): 1.10 EPW
